Reference: article PMC6500071
No constants are given. Whether binding was seen depends on the method and setting. In cells and extracts the contact can be indirect. Some binding calls cover weakened binding; strength is not graded here. One block for each substance: values may come before it.

The chains behind the UniProt entries cited, without tags or fusion partners.
UniProt Q14457: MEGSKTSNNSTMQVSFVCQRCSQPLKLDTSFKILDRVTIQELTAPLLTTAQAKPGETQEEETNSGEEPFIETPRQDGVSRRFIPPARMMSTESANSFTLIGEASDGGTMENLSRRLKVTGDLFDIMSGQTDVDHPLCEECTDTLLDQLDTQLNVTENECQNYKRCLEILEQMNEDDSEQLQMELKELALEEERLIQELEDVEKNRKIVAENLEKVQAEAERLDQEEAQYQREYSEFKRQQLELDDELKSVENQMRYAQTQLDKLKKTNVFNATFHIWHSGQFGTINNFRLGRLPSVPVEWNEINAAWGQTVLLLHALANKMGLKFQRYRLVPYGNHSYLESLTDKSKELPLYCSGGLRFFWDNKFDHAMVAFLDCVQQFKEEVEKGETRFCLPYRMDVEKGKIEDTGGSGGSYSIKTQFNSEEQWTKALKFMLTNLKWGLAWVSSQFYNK
UniProt Q96DH6: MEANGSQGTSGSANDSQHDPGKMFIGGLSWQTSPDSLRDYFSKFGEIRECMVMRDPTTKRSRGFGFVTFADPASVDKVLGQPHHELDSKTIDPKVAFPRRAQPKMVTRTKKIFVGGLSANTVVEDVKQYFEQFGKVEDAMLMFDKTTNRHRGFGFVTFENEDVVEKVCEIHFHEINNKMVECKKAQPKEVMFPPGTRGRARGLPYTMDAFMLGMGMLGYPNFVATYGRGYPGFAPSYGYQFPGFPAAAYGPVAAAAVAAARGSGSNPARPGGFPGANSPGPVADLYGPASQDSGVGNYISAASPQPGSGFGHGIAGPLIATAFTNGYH
UniProt Q13547: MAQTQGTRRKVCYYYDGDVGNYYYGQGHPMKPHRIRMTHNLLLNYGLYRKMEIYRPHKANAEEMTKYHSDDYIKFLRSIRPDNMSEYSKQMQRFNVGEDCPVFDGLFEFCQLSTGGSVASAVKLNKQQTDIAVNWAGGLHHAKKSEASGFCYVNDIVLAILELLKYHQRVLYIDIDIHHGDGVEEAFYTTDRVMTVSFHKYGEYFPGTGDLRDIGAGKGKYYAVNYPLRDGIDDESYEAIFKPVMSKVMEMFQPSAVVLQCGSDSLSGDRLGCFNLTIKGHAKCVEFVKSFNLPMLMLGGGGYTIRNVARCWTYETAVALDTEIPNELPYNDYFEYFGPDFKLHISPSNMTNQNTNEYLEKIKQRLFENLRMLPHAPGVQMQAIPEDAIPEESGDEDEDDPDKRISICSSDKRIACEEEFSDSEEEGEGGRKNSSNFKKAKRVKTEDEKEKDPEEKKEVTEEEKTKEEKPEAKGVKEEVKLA

Experiments:
[1] = molecular target: T1, pRB (human (endogenous in ST8814)) (UniProt P06400); assay: co-IP; pRB immunoprecipitated from lysates of ST8814 cells with HMGA2 knockdown or overexpression; Western blot for HDAC1 and E2F1
T1 sequence: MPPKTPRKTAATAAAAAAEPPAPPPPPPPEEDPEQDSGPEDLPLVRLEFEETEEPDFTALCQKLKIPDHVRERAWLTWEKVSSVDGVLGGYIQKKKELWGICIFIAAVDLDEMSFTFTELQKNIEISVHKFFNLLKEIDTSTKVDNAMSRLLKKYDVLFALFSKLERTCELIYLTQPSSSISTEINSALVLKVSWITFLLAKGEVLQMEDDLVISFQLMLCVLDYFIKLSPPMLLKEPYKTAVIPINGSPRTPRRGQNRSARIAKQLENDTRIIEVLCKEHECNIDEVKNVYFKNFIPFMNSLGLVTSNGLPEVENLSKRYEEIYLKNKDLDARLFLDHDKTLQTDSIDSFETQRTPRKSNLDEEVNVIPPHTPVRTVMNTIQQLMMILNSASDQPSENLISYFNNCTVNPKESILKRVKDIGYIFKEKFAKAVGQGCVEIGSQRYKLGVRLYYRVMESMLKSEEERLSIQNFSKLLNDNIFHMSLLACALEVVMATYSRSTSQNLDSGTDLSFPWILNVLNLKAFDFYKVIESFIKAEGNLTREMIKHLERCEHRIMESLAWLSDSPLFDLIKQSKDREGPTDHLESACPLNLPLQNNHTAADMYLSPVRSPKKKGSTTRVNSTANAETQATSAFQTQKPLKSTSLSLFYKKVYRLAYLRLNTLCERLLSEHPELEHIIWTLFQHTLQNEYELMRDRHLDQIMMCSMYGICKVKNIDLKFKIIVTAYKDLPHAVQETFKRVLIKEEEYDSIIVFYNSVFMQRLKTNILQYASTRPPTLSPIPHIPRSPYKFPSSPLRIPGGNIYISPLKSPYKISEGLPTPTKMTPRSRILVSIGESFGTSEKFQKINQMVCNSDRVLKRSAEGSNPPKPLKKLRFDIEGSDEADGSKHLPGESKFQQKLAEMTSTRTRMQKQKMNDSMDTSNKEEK

[2] = molecular target: Beclin1 (human (endogenous in NF1 MPNST cells)) (UniProt Q14457); assay: co-IP; lysates of NF1 MPNST cells; antibody (anti-MSI2 or anti-Beclin1) at 4 °C overnight, protein A/G agarose 1.5 h, three washes with lysis solution, elution in SDS loading buffer, Western blot
[3] = molecular target: Musashi-2 (MSI2) (human (endogenous in NF1 MPNST cells)) (UniProt Q96DH6); assay: as above

binding [1]: binds
Substance: HDAC1 (from UniProt Q13547 1-482)

binding [2]: binds
Substance: Musashi-2 (MSI2) (from UniProt Q96DH6 1-328)

binding [3]: binds
Substance: Beclin1 (from UniProt Q14457 1-450)
